The target in test [1] is ECA1-cYFP (Arabidopsis thaliana) (UniProt P92939). The test can be described thus: split reporter.
Test [2] concerns the target ECA1-GFP (Arabidopsis thaliana) (UniProt P92939). Description: FRET or BRET. In general terms: Bioluminescence resonance energy transfer reports proximity on the nanometre scale.
The target of test [3] is ECA1-HA (Arabidopsis thaliana) (UniProt P92939). The test can be described thus: co-IP.

Protein sequences, listed by entry. Tags and fused reporters are not part of them.
UniProt P92939: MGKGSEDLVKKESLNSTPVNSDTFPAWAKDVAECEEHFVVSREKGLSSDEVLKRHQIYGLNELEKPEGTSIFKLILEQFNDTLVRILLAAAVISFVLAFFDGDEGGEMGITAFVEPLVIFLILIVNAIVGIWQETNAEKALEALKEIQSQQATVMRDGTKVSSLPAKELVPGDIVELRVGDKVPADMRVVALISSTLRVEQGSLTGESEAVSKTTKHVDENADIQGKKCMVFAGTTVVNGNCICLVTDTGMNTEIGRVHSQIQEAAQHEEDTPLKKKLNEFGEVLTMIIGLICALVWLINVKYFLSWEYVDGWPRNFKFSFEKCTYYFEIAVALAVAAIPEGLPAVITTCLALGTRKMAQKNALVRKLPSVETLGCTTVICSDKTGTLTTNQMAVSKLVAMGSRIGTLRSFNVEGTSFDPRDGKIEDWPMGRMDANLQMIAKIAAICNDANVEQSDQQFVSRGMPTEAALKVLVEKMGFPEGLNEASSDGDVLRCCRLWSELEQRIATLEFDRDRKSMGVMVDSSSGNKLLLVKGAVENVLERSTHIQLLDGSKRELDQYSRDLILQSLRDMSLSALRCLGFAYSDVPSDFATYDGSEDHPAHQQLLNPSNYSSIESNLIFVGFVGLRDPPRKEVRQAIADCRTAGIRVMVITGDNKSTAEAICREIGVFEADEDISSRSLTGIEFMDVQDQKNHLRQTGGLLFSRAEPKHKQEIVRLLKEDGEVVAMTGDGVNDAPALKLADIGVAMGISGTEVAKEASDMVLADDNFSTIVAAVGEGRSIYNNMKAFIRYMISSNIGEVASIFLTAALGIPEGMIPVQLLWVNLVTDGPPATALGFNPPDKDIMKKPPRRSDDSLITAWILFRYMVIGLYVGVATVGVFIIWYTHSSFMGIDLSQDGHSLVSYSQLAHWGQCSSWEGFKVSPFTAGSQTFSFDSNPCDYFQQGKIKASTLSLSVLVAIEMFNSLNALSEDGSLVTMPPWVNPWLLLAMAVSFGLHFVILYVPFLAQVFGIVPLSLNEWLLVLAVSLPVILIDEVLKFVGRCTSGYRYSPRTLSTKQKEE

These are yes or no findings as the source states them, for the method shown. In cells and extracts the contact can be indirect. Some entries that bind do so weakly or less than the wild type. For some assays here: Sequences can lack the tags named with a protein.

B1: CPK32-nYFP (enzyme, UniProt Q6NLQ6 1-538)
chain: MGNCCGTAGSLAQNDNKPKKGRKKQNPFSIDYGLHHGGGDGGGRPLKLIVLNDPTGREIESKYTLGRELGRGEFGVTYLCTDKETDDVFACKSILKKKLRTAVDIEDVRREVEIMRHMPEHPNVVTLKETYEDEHAVHLVMELCEGGELFDRIVARGHYTERAAAAVTKTIMEVVQVCHKHGVMHRDLKPENFLFGNKKETAPLKAIDFGLSVFFKPGERFNEIVGSPYYMAPEVLKRNYGPEVDIWSAGVILYILLCGVPPFWAETEQGVAQAIIRSVLDFRRDPWPKVSENAKDLIRKMLDPDQKRRLTAQQVLDHPWLQNAKTAPNVSLGETVRARLKQFTVMNKLKKRALRVIAEHLSDEEASGIREGFQIMDTSQRGKINIDELKIGLQKLGHAIPQDDLQILMDAGDIDRDGYLDCDEFIAISVHLRKMGNDEHLKKAFAFFDQNNNGYIEIEELREALSDELGTSEEVVDAIIRDVDTDKDGRISYEEFVTMMKTGTDWRKASRQYSRERFNSISLKLMQDASLQVNGDTR
Consider B1, for which, in test [1], the binding entry is recorded as “binds”.

B2: CPK12-nYFP (enzyme, UniProt Q42396 1-490)
chain: MANKPRTRWVLPYKTKNVEDNYFLGQVLGQGQFGTTFLCTHKQTGQKLACKSIPKRKLLCQEDYDDVLREIQIMHHLSEYPNVVRIESAYEDTKNVHLVMELCEGGELFDRIVKRGHYSEREAAKLIKTIVGVVEACHSLGVVHRDLKPENFLFSSSDEDASLKSTDFGLSVFCTPGEAFSELVGSAYYVAPEVLHKHYGPECDVWSAGVILYILLCGFPPFWAESEIGIFRKILQGKLEFEINPWPSISESAKDLIKKMLESNPKKRLTAHQVLCHPWIVDDKVAPDKPLDCAVVSRLKKFSAMNKLKKMALRVIAERLSEEEIGGLKELFKMIDTDKSGTITFEELKDSMRRVGSELMESEIQELLRAADVDESGTIDYGEFLAATIHLNKLEREENLVAAFSFFDKDASGYITIEELQQAWKEFGINDSNLDEMIKDIDQDNDGQIDYGEFVAMMRKGNGTGGGIGRRTMRNSLNFGTTLPDESMNV
In the case of B2, the binding entry in test [1] is listed as “binds”.

B3: CPK2-nYFP (enzyme, UniProt Q38870 1-646)
chain: MGNACVGPNISGNGFLQTVTAAMWRPRIGAEQASSSSHGNGQVSKEAASEPATDQVQNKPPEPITMPSSKTNPETKLKPDLEIQPEEKKEKVLAEETKQKVVPEESKQEVPPEESKREVVVQPESAKPETKSESKPETTKPETTSETKPETKAEPQKPKHMRRVSSAGLRTESVLQRKTENFKEFYSLGRKLGQGQFGTTFLCLEKGTGNEYACKSISKRKLLTDEDVEDVRREIQIMHHLAGHPNVISIKGAYEDVVAVHLVMELCSGGELFDRIIQRGHYTERKAAELARTIVGVLEACHSLGVMHRDLKPENFLFVSREEDSLLKTIDFGLSMFFKPDEVFTDVVGSPYYVAPEVLRKRYGPESDVWSAGVIVYILLSGVPPFWAETEQGIFEQVLHGDLDFSSDPWPSISESAKDLVRKMLVRDPKRRLTAHQVLCHPWVQIDGVAPDKPLDSAVLSRMKQFSAMNKFKKMALRVIAESLSEEEIAGLKQMFKMIDADNSGQITFEELKAGLKRVGANLKESEILDLMQAADVDNSGTIDYKEFIAATLHLNKIEREDHLFAAFSYFDKDESGFITPDELQQACEEFGVEDARIEEMMRDVDQDKDGRIDYNEFVAMMQKGSIMGGPVKMGLENSISISLKH
Regarding B3, in test [1], the binding result was “binds”.

B4: CPK2-RFP (enzyme, UniProt Q38870 1-646)
chain: MGNACVGPNISGNGFLQTVTAAMWRPRIGAEQASSSSHGNGQVSKEAASEPATDQVQNKPPEPITMPSSKTNPETKLKPDLEIQPEEKKEKVLAEETKQKVVPEESKQEVPPEESKREVVVQPESAKPETKSESKPETTKPETTSETKPETKAEPQKPKHMRRVSSAGLRTESVLQRKTENFKEFYSLGRKLGQGQFGTTFLCLEKGTGNEYACKSISKRKLLTDEDVEDVRREIQIMHHLAGHPNVISIKGAYEDVVAVHLVMELCSGGELFDRIIQRGHYTERKAAELARTIVGVLEACHSLGVMHRDLKPENFLFVSREEDSLLKTIDFGLSMFFKPDEVFTDVVGSPYYVAPEVLRKRYGPESDVWSAGVIVYILLSGVPPFWAETEQGIFEQVLHGDLDFSSDPWPSISESAKDLVRKMLVRDPKRRLTAHQVLCHPWVQIDGVAPDKPLDSAVLSRMKQFSAMNKFKKMALRVIAESLSEEEIAGLKQMFKMIDADNSGQITFEELKAGLKRVGANLKESEILDLMQAADVDNSGTIDYKEFIAATLHLNKIEREDHLFAAFSYFDKDESGFITPDELQQACEEFGVEDARIEEMMRDVDQDKDGRIDYNEFVAMMQKGSIMGGPVKMGLENSISISLKH
For B4, the binding entry in test [2] was “binds”.

B5: CPK2-GFP (enzyme, UniProt Q38870 1-646)
chain: MGNACVGPNISGNGFLQTVTAAMWRPRIGAEQASSSSHGNGQVSKEAASEPATDQVQNKPPEPITMPSSKTNPETKLKPDLEIQPEEKKEKVLAEETKQKVVPEESKQEVPPEESKREVVVQPESAKPETKSESKPETTKPETTSETKPETKAEPQKPKHMRRVSSAGLRTESVLQRKTENFKEFYSLGRKLGQGQFGTTFLCLEKGTGNEYACKSISKRKLLTDEDVEDVRREIQIMHHLAGHPNVISIKGAYEDVVAVHLVMELCSGGELFDRIIQRGHYTERKAAELARTIVGVLEACHSLGVMHRDLKPENFLFVSREEDSLLKTIDFGLSMFFKPDEVFTDVVGSPYYVAPEVLRKRYGPESDVWSAGVIVYILLSGVPPFWAETEQGIFEQVLHGDLDFSSDPWPSISESAKDLVRKMLVRDPKRRLTAHQVLCHPWVQIDGVAPDKPLDSAVLSRMKQFSAMNKFKKMALRVIAESLSEEEIAGLKQMFKMIDADNSGQITFEELKAGLKRVGANLKESEILDLMQAADVDNSGTIDYKEFIAATLHLNKIEREDHLFAAFSYFDKDESGFITPDELQQACEEFGVEDARIEEMMRDVDQDKDGRIDYNEFVAMMQKGSIMGGPVKMGLENSISISLKH
Regarding B5, in test [3], the binding entry is listed as “binds”.

(Values after article doi:10.1101/2024.10.13.617954.)
